Taken from: PubChem BioAssay AID1224828 (NIAID, 2016)

- Assay: 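Regulators linking TLR4 signalling to p65 nuclear translocation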 (primary screen)
- System: mouse RAW264.7 G9 macrophage reporter cells (GFP-p65, Tnf promoter-mCherry)
- Reagents: siRNA pool against mouse genes, 100 nM
- Time to read-out: 2 days siRNA transfection, then 40 min LPS before fixation
- Treatment: LPS (Salmonella minnesota R595) at 10 ng/ml
- Read-out: 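Imaged p65 nuclear translocation ratio, normalised to the plate median, converted to robust z-scores and averaged across two replicates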
- Scale: p65 translocation robust z-score: higher = more nuclear NF-kappaB p65 after LPS than the plate median; nuclear/cytoplasmic p65 ratio: higher = more nuclear NF-kappaB p65
- Hit rule: 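Called active when z exceeds 3.3 or falls under -1.56 (median of Tlr4 controls), giving activity score of at least 50; no calls for control wells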
- Calls: active = hit (p65 shift raised or lowered); inactive = no clear change
This is a random part of about 17,000 reagents tested. Over the whole deposit, 762 (4.5%) got an active call. 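Active calls include both raised and lowered p65 entry, mostly lowered; wells with fewer than 50 cells lack a z-score.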 Raw values vary from plate to plate and are shown uncorrected. Unmarked entries are inactive. Reagent sequences are not shown.

Silencing of Washc3 came out at: nuclear/cytoplasmic p65 ratio, rep 1 = 1.04; nuclear/cytoplasmic p65 ratio, rep 2 = 0.94; low cell count flag fewer than 50 cells per well; well left out of scoring. With knock-down of E4f1, the record shows p65 translocation robust z-score 1.14; nuclear/cytoplasmic p65 ratio, rep 1 = 1.68; nuclear/cytoplasmic p65 ratio, rep 2 = 1.46; low cell count flag enough cells to score. Ift22 showed p65 translocation robust z-score -0.24; nuclear/cytoplasmic p65 ratio, rep 1 = 1.38; nuclear/cytoplasmic p65 ratio, rep 2 = 1.17; low cell count flag enough cells to score. For Rnf144a, the values are p65 translocation robust z-score -0.42; nuclear/cytoplasmic p65 ratio, rep 1 = 1.51; nuclear/cytoplasmic p65 ratio, rep 2 = 1.4; low cell count flag enough cells to score. With knock-down of Fgfr2, the screen gave p65 translocation robust z-score 0.39; nuclear/cytoplasmic p65 ratio, rep 1 = 1.75; nuclear/cytoplasmic p65 ratio, rep 2 = 1.43; low cell count flag enough cells to score. Or55b4 scored p65 translocation robust z-score 0.25; nuclear/cytoplasmic p65 ratio, rep 1 = 1.52; nuclear/cytoplasmic p65 ratio, rep 2 = 1.23; low cell count flag enough cells to score.

Silencing of Fam53a gave: p65 translocation robust z-score -1.73 (active); nuclear/cytoplasmic p65 ratio, rep 1 = 1.1; nuclear/cytoplasmic p65 ratio, rep 2 = 1.27; low cell count flag enough cells to score. Against Or5p54, the entry reads nuclear/cytoplasmic p65 ratio, rep 1 = 1.48; nuclear/cytoplasmic p65 ratio, rep 2 = 1.34; low cell count flag fewer than 50 cells per well; well left out of scoring. Against Lypd3, the entry reads nuclear/cytoplasmic p65 ratio, rep 1 = 1.33; nuclear/cytoplasmic p65 ratio, rep 2 = 1.62; low cell count flag fewer than 50 cells per well; well left out of scoring. Mpv17l gave p65 translocation robust z-score 0.87; nuclear/cytoplasmic p65 ratio, rep 1 = 2.04; nuclear/cytoplasmic p65 ratio, rep 2 = 1.62; low cell count flag enough cells to score. After knock-down of Tmc2, the screen gave p65 translocation robust z-score -2.32 (active); nuclear/cytoplasmic p65 ratio, rep 1 = 1.07; nuclear/cytoplasmic p65 ratio, rep 2 = 1.11; low cell count flag enough cells to score. Knock-down of Or2a56 resulted in: nuclear/cytoplasmic p65 ratio, rep 1 = 1.37; nuclear/cytoplasmic p65 ratio, rep 2 = 1.04; low cell count flag fewer than 50 cells per well; well left out of scoring.

2 of these entries in another layout:
Gene	p65 translocation robust z-score	nuclear/cytoplasmic p65 ratio, rep 1	nuclear/cytoplasmic p65 ratio, rep 2	low cell count flag
Washc3		1.04	0.94	fewer than 50 cells per well; well left out of scoring
E4f1	1.14	1.68	1.46	enough cells to score
